# Patent US12270054B2, “Autologous tumor organoid and immune cell co-cultures and methods of use as predictive models for pancreatic cancer treatment” (University of Cincinnati, priority 2019, dated 2025)
# At least one structure is not confirmed: it was looked up by name or label, or the drawing left a doubt.
# Assays:
# [1] = test system: PD-L1 expressing organoids and MDSCs; experiment: Autologous organoid/MDSCs co-cultures derived from JAX and TAC mice; assay type: cell-based, mouse; settings: both JAX and TAC-derived co-cultures, flow cytometry (FIG. 8F)
# [2] = test system: PD-L1 expressing cancer organoids, CD8+ T cells, MDSCs; experiment: Mouse-derived pancreatic cancer organoid/CTL/MDSC co-culture (Example 8); assay type: cell-based; settings: condition 4
# [3] = test system: PD-L1 expressing PDAC organoids, CD8+ T cells, MDSCs; experiment: JAX mouse-derived pancreatic cancer organoid/CTL/MDSC co-culture; assay type: cell-based; settings: condition 11
# [4] = test system: PD-L1 expressing human-derived PDAC organoids, CTLs, MDSCs; experiment: PDAC patient-derived autologous organoid/immune cell co-culture; assay type: cell-based
smiles,measurement,setting,value
"COc1cc2nccc(Oc3ccc(NC(=O)C4(C(=O)Nc5ccc(F)cc5)CC4)cc3)c2cc1OC [cabo, cabozantinib]",viable MDSCs,[1],significant decrease
same,PD-L1 expressing cancer organoid death,[2]; cabozantinib added to organoid/CTL/MDSC co-culture treated with PD-1Inh,maximized the efficacy of checkpoint inhibition
same,MDSCs in culture,[2]; organoid/CTL/MDSC co-culture,depleted
same,MDSCs in culture,[3]; JAX organoid/CTL/MDSC co-culture,depleted
same,PD-L1 expressing cancer organoid death,[3]; cabo added to JAX organoid/CTL/MDSC co-culture treated with nivolumab and chemotherapy,maximized the efficacy of checkpoint inhibition
same,PD-L1 expressing cell death,"[4]; advanced stage tumors, cabo added to co-culture with MDSCs, nivolumab and chemotherapy, condition 9",significantly increased
same,viable MDSCs,"[4]; human co-cultures, flow cytometry (FIG. 11A)",significant decrease
